Structures were worked out from names or drawings and are uncertain.
Columns and labels:
A2780 cells = test: In-vitro cell proliferation assay (SRB, 72 hours); type: cell-based; details: read-out: A2780 IC50, sulforhodamine B (SRB) assay
[1] = target: Recombinant His-tagged NAMPT (Homo sapiens, UniProt P43490); test: Biochemical inhibition assay: NAMPT enzymatic reaction, NMN quantified by mass spectrometry; details: read-out: Biochem IC50; 33 nM NAMPT, 1 μM NAM, 100 μM PRPP, 2.5 mM ATP, 30 minutes at room temperature

Sequences of proteins named here, by UniProt entry; tags and fusion partners are left off.
UniProt P43490, whole entry: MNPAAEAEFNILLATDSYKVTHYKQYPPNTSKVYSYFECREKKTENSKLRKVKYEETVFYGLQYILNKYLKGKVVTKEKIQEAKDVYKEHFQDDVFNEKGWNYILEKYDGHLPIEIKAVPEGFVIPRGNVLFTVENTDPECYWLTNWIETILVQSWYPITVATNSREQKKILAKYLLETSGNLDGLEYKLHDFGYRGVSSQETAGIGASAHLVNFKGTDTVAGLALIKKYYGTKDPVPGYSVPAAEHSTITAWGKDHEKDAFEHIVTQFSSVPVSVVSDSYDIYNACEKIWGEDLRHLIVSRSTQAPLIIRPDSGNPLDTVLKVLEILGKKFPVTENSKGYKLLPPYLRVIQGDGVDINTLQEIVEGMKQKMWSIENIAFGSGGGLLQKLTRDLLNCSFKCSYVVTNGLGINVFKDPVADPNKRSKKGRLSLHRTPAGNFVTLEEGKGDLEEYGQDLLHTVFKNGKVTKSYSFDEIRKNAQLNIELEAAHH

SMILES | IC50 (A2780 cells) [nM] | IC50 [1] [nM]
O=C(NCCCCC1CCN(C(=O)c2cc3ccncc3s2)CC1)c1cc2ccncc2s1 | 100 to 1000 | 15.2
Cc1nc(C)c(C(=O)N2CCC(CCCCNC(=O)c3cc4ccncc4s3)CC2)s1 | 13 | 35.5
CCOc1ncccc1C(=O)N1CCC(CCCCNC(=O)c2cc3ccncc3s2)CC1 | – | 5.6
O=C(NCCCCC1CCN(C(=O)c2ccccc2Cl)CC1)c1cc2ccncc2s1 | 1.7 | 8.3
COc1ccc(C(=O)N2CCC(CCCCNC(=O)c3cc4ccncc4s3)CC2)c(OC)c1 | 6.9 | 15.7

From patent US9555039B2, “Piperidine derivatives and compositions for the inhibition of nicotinamide phosphoribosyltransferase (NAMPT)” (Forma TM, LLC., priority 2011, dated 2017)
